Results are given in words; binding and its absence hold for the method and conditions named. Binding seen in cells or lysates may run through a third protein. Some results given as binding are weak or reduced against the parent protein; the word gives no strength.

By UniProt entry, the sequences of proteins in these tests, tags left out.
UniProt Q9UKV8: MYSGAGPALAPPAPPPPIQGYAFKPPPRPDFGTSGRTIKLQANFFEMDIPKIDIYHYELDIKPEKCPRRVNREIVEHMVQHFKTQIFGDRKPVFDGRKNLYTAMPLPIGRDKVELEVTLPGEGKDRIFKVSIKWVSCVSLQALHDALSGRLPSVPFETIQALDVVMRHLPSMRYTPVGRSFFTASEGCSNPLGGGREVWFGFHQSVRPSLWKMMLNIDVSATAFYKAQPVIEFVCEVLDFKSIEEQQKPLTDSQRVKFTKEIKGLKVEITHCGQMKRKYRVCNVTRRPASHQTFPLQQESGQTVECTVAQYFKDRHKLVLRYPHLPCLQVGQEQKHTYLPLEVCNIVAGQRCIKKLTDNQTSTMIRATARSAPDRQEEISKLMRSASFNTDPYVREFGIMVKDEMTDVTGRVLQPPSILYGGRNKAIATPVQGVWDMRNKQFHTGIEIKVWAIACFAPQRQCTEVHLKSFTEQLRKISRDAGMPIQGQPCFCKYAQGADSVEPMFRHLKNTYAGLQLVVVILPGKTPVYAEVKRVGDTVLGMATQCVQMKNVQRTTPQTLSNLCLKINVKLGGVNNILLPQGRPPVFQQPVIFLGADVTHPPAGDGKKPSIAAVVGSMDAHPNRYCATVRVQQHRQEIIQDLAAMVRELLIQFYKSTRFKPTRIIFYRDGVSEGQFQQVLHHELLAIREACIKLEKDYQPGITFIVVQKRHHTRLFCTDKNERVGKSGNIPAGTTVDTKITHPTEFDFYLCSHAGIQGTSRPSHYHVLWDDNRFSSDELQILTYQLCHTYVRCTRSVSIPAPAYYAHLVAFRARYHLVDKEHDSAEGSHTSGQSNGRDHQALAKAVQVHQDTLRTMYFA

Results on two substances are retold here after doi:10.1101/2020.06.08.140590.

For test [1], the target named is HA-Ago2 (FLAG/HA-tagged Argonaute 2) (human) (UniProt Q9UKV8). The test can be described thus: co-IP.
The target of test [2] is HA-Ago1 (FLAG/HA-tagged Argonaute 1) (human) (UniProt Q9UL18). Description: co-IP.

As for “HSC70, endogenous (from UniProt P11142 1-646)”, the binding result in test [1] and in test [2] was “binds” throughout.
With “HSPA1A (heat shock 70KDa protein 1A), endogenous (from UniProt P0DMV8 1-641)”, the binding entry in test [1] and in test [2] was “binds” throughout.
